Measurements reported in patent US8163766B2, “Beta-secretase modulators and methods of use” (Amgen Inc., priority 2005, dated 2012).
Some entries share one result that the patent states for a list of compounds. For part of these data: At least one compound was matched to its structure with a doubt left.

Chains of the proteins cited; added tags and fusions are not shown. Residues count along the entry.
UniProt P56817, 46-501, species assumed: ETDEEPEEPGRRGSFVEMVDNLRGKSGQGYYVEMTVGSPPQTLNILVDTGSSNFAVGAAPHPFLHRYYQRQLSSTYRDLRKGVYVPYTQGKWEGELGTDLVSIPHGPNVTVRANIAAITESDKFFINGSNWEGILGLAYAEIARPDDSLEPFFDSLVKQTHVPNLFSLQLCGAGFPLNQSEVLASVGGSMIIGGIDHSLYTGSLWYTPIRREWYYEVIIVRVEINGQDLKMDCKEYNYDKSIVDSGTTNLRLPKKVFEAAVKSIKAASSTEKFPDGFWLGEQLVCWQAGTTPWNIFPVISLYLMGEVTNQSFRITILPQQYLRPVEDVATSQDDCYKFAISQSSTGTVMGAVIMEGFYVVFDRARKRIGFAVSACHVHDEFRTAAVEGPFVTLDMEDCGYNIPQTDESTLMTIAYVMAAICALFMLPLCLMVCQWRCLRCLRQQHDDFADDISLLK

Assays:
[1] = system: Aβ 40 in conditioned media of cells stably expressing Amyloid Precursor Protein (APP); assay: BACE Cell-Based Assay (Aβ40 in conditioned medium, sandwich ELISA); conditions: 24 hours of incubation with the test compounds, Aβ 40 by sandwich ELISA, read-out: IC50 values in the cell-based assay (inhibition of Aβ 40)
Experimental: The cell-based assay measures inhibition or reduction of Aβ40 in conditioned medium of test compound treated cells, which express amyloid precursor protein.
Cells stably expressing Amyloid Precursor Protein (APP) were plated at a density of 40K cells/well in 96 well plates (Costar). The cells were cultivated for 24 h at 37° C. and 5% CO2 in DMEM supplemented with 10% FBS. The test compounds were then added to cells in 10-point dose response concentrations with the starting concentration being either 100 μM or 10 μM. The compounds were diluted from stock solutions in DMSO and the final DMSO concentration of the test compounds on cells was 0.1%. After 24 hours of incubation with the test compounds the supernatant conditioned media was collected and the Aβ 40 levels were determined using a sandwich ELISA. The IC50 of the compound was calculated from the percent of control or percent inhibition of Aβ 40 as a function of the concentration of the test compound. […]
Cellular supernatants were incubated with the capture antibody for 3 h at 4° C., followed by 3 wash steps in TBS-tween (0.05%). […] The final readout of the ELISA is Time-Resolved Fluorescence (counts per minute) using Delfia reagents Streptavidin-Europium and Enhancement solutions (Perkin Elmer) and the Victor 2 multilabel counter (Perkin Elmer).

BACE = BACE (Homo sapiens, UniProt P56817); assay: In Vitro Enzymatic BACE FRET (Fluorescence Resonance Energy Transfer) Assay; type: biochemical; conditions: Enzyme 0.2 nM pre-incubated one hour with inhibitor, FRET substrate 50 nM, acetate pH 4.2

Row | SMILES | IC50 [1] [µM] | IC50 (BACE) [µM]
1 | CCc1cnc2c(c1)[C@@H](NC[C@@H](O)[C@H](Cc1ccccc1)NC(=O)c1cc(-c3ccccn3)c(=O)n(C3CCCC3)c1)CC1(CCC1)O2 [Example 308] | ≤ 5 | –
2 | O=C1CC[C@@H](C(=O)N[C@@H](Cc2ccccc2)[C@H](O)CN[C@H]2CC3(CCC3)Oc3ccc(N4CCOCC4)cc32)O1 [Example 528, (2S)-N-((1S,2R)-2-hydroxy-3-(((4S)-6-(4-morpholinyl)-3,4-dihydrospiro[chromene-2,1′-cyclobutan]-4-yl)amino)-1-(phenylmethyl)propyl)-5-oxotetrahydro-2-furancarboxamide] | – | ≤ 5
3 | O=C1CC[C@H](C(=O)N[C@@H](Cc2ccccc2)[C@H](O)CN[C@H]2CC3(CCC3)Oc3ccc(N4CCOCC4)cc32)O1 [Example 529, (2R)-N-((1S,2R)-2-hydroxy-3-(((4S)-6-(4-morpholinyl)-3,4-dihydrospiro[chromene-2,1′-cyclobutan]-4-yl)amino)-1-(phenylmethyl)propyl)-5-oxotetrahydro-2-furancarboxamide] | – | ≤ 5
